Measured data: PubChem BioAssay AID1259254 (NCATS, 2017)
Here is an unselected part of about 59,000 reagents. Over the whole deposit, about 1,550 (2.6%) were called active. 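G2 share is only a proxy for re-replication; each gene was hit by three separate siRNAs, and active genes were retested.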 Raw values vary from plate to plate and are shown uncorrected. Reagent sequences are not shown. The record does not give: the amount of reagent.

Screen: 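Finding genes that stop cells copying their DNA twice in one cycle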 (primary screen)
System: human HCT116 colorectal cancer cells
Knock-down reagent: single siRNA against human genes
Duration: 3 days
Measured: 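Imaged Hoechst DNA stain sorts each cell into a cycle phase by DNA amount; per plate, G2 fraction set to 0% for non-targeting and 100% for GMNN siRNA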
Reading the numbers: G2 robust z-score and G2 cells, % of GMNN control: higher = more G2 cells, more excess DNA replication; raw share of cells in G2: higher = larger share of cells with G2 DNA content
Call rule: 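Active siRNAs have a G2 robust z of 5 or more median absolute deviations over the median, which in these data means about 38% or higher of GMNN control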

target gene | PubChem SID | G2 robust z-score | G2 cells, % of GMNN control | raw share of cells in G2 (%) | outcome
NECAB2 (N-terminal EF-hand calcium binding protein 2) | SID160741908 | 0.885 | 9.19 | 7.64 | inactive
NECAB2 (N-terminal EF-hand calcium binding protein 2) | SID160741909 | 0.589 | 7.11 | 6.53 | inactive
NECAB2 (N-terminal EF-hand calcium binding protein 2) | SID160741910 | 4.59 | 35.2 | 21.9 | inactive
GEMIN4 (gem nuclear organelle associated protein 4) | SID160739671 | 0.573 | 7 | 6.53 | inactive
GEMIN4 (gem nuclear organelle associated protein 4) | SID160739672 | 2.71 | 22.1 | 12.9 | inactive
GEMIN4 (gem nuclear organelle associated protein 4) | SID160739673 | -1.02 | -4.23 | 1.92 | inactive
NF1 (neurofibromin 1) | SID160725878 | -0.963 | -3.81 | 2.34 | inactive
NF1 (neurofibromin 1) | SID160725879 | -0.773 | -2.47 | 2.31 | inactive
NF1 (neurofibromin 1) | SID160733966 | -0.227 | 1.37 | 3.48 | inactive
NF1 (neurofibromin 1) | SID160777980 | 1.27 | 11.9 | 10.2 | inactive
NF1 (neurofibromin 1) | SID160777981 | -0.484 | -0.435 | 3.05 | inactive
NF1 (neurofibromin 1) | SID160777982 | 0.789 | 8.52 | 8.65 | inactive
TATDN3 (TatD DNase domain containing 3) | SID160756758 | 4.18 | 32.4 | 16.4 | inactive
TATDN3 (TatD DNase domain containing 3) | SID160756759 | 2.13 | 18 | 8.8 | inactive
TATDN3 (TatD DNase domain containing 3) | SID160756760 | -0.281 | 0.991 | 2.94 | inactive
RNASE13 (ribonuclease A family member 13 (inactive)) | SID160733384 | -0.67 | -1.75 | 2.53 | inactive
RNASE13 (ribonuclease A family member 13 (inactive)) | SID160767725 | 6.49 | 48.6 | 22.4 | active
RNASE13 (ribonuclease A family member 13 (inactive)) | SID160767726 | 2.62 | 21.4 | 11.5 | inactive
WDR83OS (WD repeat domain 83 opposite strand) | SID160740754 | -0.643 | -1.56 | 3.04 | inactive
WDR83OS (WD repeat domain 83 opposite strand) | SID160740755 | 3.74 | 29.3 | 16.6 | inactive
WDR83OS (WD repeat domain 83 opposite strand) | SID160740756 | -0.923 | -3.53 | 2.03 | inactive
PHLDB2 (pleckstrin homology like domain family B member 2) | SID160753558 | -0.569 | -1.04 | 3.64 | inactive
PHLDB2 (pleckstrin homology like domain family B member 2) | SID160753560 | 0.137 | 3.93 | 4.23 | inactive
PHLDB2 (pleckstrin homology like domain family B member 2) | SID160753561 | -0.145 | 1.95 | 3.54 | inactive
PDIA5 (protein disulfide isomerase family A member 5) | SID160729612 | -0.0845 | 2.37 | 7.41 | inactive
PDIA5 (protein disulfide isomerase family A member 5) | SID160729613 | 0.0934 | 3.62 | 7.27 | inactive
PDIA5 (protein disulfide isomerase family A member 5) | SID160729615 | 1.19 | 11.3 | 7.51 | inactive

Only “raw share of cells in G2 (%)”, for 11 of the entries above:
NECAB2 (N-terminal EF-hand calcium binding protein 2) [SID160741910] = 21.9
GEMIN4 (gem nuclear organelle associated protein 4) [SID160739671] = 6.53
GEMIN4 (gem nuclear organelle associated protein 4) [SID160739672] = 12.9
GEMIN4 (gem nuclear organelle associated protein 4) [SID160739673] = 1.92
NF1 (neurofibromin 1) [SID160725878] = 2.34
NF1 (neurofibromin 1) [SID160725879] = 2.31
NF1 (neurofibromin 1) [SID160733966] = 3.48
NF1 (neurofibromin 1) [SID160777980] = 10.2
NF1 (neurofibromin 1) [SID160777981] = 3.05
NF1 (neurofibromin 1) [SID160777982] = 8.65
TATDN3 (TatD DNase domain containing 3) [SID160756758] = 16.4

The list goes on.
target gene | PubChem SID | G2 robust z-score | G2 cells, % of GMNN control | raw share of cells in G2 (%) | outcome
PEDS1 (plasmanylethanolamine desaturase 1) | SID160765600 | 0.0337 | 3.2 | 4.87 | inactive
PEDS1 (plasmanylethanolamine desaturase 1) | SID160765601 | 0.791 | 8.53 | 7.12 | inactive
PEDS1 (plasmanylethanolamine desaturase 1) | SID160765602 | 1.05 | 10.4 | 9.08 | inactive
TAP1 (transporter 1, ATP binding cassette subfamily B member) | SID160717695 | -0.83 | -2.88 | 3.19 | inactive
TAP1 (transporter 1, ATP binding cassette subfamily B member) | SID160717696 | 3.54 | 27.9 | 14.6 | inactive
TAP1 (transporter 1, ATP binding cassette subfamily B member) | SID160717698 | -1.24 | -5.76 | 2.48 | inactive
KCNJ3 (potassium inwardly rectifying channel subfamily J member 3) | SID160776169 | -0.538 | -0.817 | 4.99 | inactive
KCNJ3 (potassium inwardly rectifying channel subfamily J member 3) | SID160776171 | -1.01 | -4.13 | 3.39 | inactive
KCNJ3 (potassium inwardly rectifying channel subfamily J member 3) | SID160776172 | -0.208 | 1.5 | 4.96 | inactive
BCKDK (branched chain keto acid dehydrogenase kinase) | SID160728105 | 5.25 | 39.9 | 18 | active
BCKDK (branched chain keto acid dehydrogenase kinase) | SID160728106 | -0.747 | -2.29 | 4.36 | inactive
BCKDK (branched chain keto acid dehydrogenase kinase) | SID160728107 | 1.13 | 10.9 | 7.17 | inactive
KRT6A (keratin 6A) | SID160776390 | -1.1 | -4.8 | 3.85 | inactive
KRT6A (keratin 6A) | SID160776392 | -1.11 | -4.86 | 2.42 | inactive
KRT6A (keratin 6A) | SID160776393 | 0.169 | 4.16 | 6.55 | inactive
CADPS (calcium dependent secretion activator) | SID160720437 | -0.22 | 1.42 | 4 | inactive
CADPS (calcium dependent secretion activator) | SID160720438 | -0.872 | -3.17 | 4.58 | inactive
CADPS (calcium dependent secretion activator) | SID160720439 | -0.0344 | 2.73 | 4.48 | inactive
APOO (apolipoprotein O) | SID160748668 | -0.625 | -1.43 | 3.96 | inactive
APOO (apolipoprotein O) | SID160748671 | -1.08 | -4.61 | 2.54 | inactive
APOO (apolipoprotein O) | SID160748672 | 0.258 | 4.78 | 3.96 | inactive
MOGS (mannosyl-oligosaccharide glucosidase) | SID160719394 | -0.293 | 0.909 | 5.98 | inactive
MOGS (mannosyl-oligosaccharide glucosidase) | SID160719395 | 2.31 | 19.2 | 10.8 | inactive
MOGS (mannosyl-oligosaccharide glucosidase) | SID160719396 | -0.507 | -0.597 | 4.04 | inactive
OR2V2 (olfactory receptor family 2 subfamily V member 2) | SID160733003 | -0.823 | -2.82 | 2.41 | inactive
OR2V2 (olfactory receptor family 2 subfamily V member 2) | SID160763680 | 2.26 | 18.9 | 10.5 | inactive
OR2V2 (olfactory receptor family 2 subfamily V member 2) | SID160763681 | 1.94 | 16.6 | 9.48 | inactive
BBOF1 (basal body orientation factor 1) | SID160734976 | -0.721 | -2.11 | 1.8 | inactive
BBOF1 (basal body orientation factor 1) | SID160750074 | -0.469 | -0.33 | 4.31 | inactive
BBOF1 (basal body orientation factor 1) | SID160750075 | 0.446 | 6.1 | 6.97 | inactive
C11orf97 (chromosome 11 open reading frame 97) | SID160733799 | 0.172 | 4.18 | 4.36 | inactive
C11orf97 (chromosome 11 open reading frame 97) | SID160768763 | -0.453 | -0.221 | 3.55 | inactive
C11orf97 (chromosome 11 open reading frame 97) | SID160768764 | -0.463 | -0.288 | 3.17 | inactive
AKTIP (AKT interacting protein) | SID160747722 | 0.178 | 4.22 | 7.4 | inactive
AKTIP (AKT interacting protein) | SID160747723 | 0.247 | 4.71 | 6.01 | inactive
AKTIP (AKT interacting protein) | SID160747724 | 0.317 | 5.2 | 6.11 | inactive
NTMT1 (N-terminal Xaa-Pro-Lys N-methyltransferase 1) | SID160733024 | 3.84 | 30 | 12.7 | inactive
NTMT1 (N-terminal Xaa-Pro-Lys N-methyltransferase 1) | SID160738944 | -0.527 | -0.74 | 3.57 | inactive
NTMT1 (N-terminal Xaa-Pro-Lys N-methyltransferase 1) | SID160738946 | 1.01 | 10.1 | 8.36 | inactive
CCL5 (C-C motif chemokine ligand 5) | SID160716447 | -1.04 | -4.37 | 2.51 | inactive
CCL5 (C-C motif chemokine ligand 5) | SID160716448 | -0.562 | -0.988 | 5.35 | inactive
CCL5 (C-C motif chemokine ligand 5) | SID160716449 | -1.49 | -7.54 | 1.96 | inactive
